Data as given in patent US8618101B2, “N-((1R,2S,5R)-5-(tert-butylamino)-2-((S)-3-(7-tert-butylpyrazolo[1,5-a][1,3,5]triazin-4-ylamino)-2-oxopyrrolidin-1-yl)cyclohexyl)acetamide, a dual modulator of chemokine receptor activity, crystalline forms and processes” (Bristol-Myers Squibb Company, priority 2009, dated 2013).

Assay: Plasma levels of Example 1 and mouse MCP-1 in the 48-hour TG peritonitis model
Format: in vivo
Settings: hCCR-2 KI mice
Procedure: For the 48-hour TG peritonitis study, Example 1 was dosed twice a day with the first dose one hour prior to TG injection. Total peritoneal cell counts were obtained on isolated cells by a cell counter. Cytospins were performed to determine differential leukocyte counts. The cells were stained for 3 minutes with Wright-Giemsa Stain (Sigma-Aldrich) and then rinsed with deionized water for 5 minutes. Differential counts were calculated based on a total of 200 cells counted per sample. Blood was also collected from the retro-orbital sinus at the end of each study in EDTA for determination of drug concentration.
The caveat for this estimation is that only CCR-2 and its major ligand MCP-1 were taken into consideration. The receptor occupancy of a ligand in the presence of a competitive inhibitor is defined by the Gaddum equation: […]

CC(=O)N[C@@H]1C[C@H](NC(C)(C)C)CC[C@@H]1N1CC[C@H](Nc2ncnc3cc(C(C)(C)C)nn23)C1=O [Example 1, N-((1R,2 S,5R)-5-(tert-Butylamino)-2-((S)-3-(7-tert-butylpyrazolo[1,5-a][1,3,5]triazin-4-ylamino)-2-oxopyrrolidin-1-yl)cyclohexyl)acetamide]
Concentration of Mouse MCP-1 in plasma (10 mg/kg oral BID): 0.021 nM | Concentration of Mouse MCP-1 in plasma (50 mg/kg oral BID): 0.048 nM | Concentration of Mouse MCP-1 in plasma (160 mg/kg oral BID): 0.046 nM | Concentration of Mouse MCP-1 in plasma (200 mg/kg (different study), oral BID): 0.068 nM
